Our source for the binding values is publication PMC8015226.

Protein sequences, listed by entry. Tags and fused reporters are not part of them.
UniProt Q92878: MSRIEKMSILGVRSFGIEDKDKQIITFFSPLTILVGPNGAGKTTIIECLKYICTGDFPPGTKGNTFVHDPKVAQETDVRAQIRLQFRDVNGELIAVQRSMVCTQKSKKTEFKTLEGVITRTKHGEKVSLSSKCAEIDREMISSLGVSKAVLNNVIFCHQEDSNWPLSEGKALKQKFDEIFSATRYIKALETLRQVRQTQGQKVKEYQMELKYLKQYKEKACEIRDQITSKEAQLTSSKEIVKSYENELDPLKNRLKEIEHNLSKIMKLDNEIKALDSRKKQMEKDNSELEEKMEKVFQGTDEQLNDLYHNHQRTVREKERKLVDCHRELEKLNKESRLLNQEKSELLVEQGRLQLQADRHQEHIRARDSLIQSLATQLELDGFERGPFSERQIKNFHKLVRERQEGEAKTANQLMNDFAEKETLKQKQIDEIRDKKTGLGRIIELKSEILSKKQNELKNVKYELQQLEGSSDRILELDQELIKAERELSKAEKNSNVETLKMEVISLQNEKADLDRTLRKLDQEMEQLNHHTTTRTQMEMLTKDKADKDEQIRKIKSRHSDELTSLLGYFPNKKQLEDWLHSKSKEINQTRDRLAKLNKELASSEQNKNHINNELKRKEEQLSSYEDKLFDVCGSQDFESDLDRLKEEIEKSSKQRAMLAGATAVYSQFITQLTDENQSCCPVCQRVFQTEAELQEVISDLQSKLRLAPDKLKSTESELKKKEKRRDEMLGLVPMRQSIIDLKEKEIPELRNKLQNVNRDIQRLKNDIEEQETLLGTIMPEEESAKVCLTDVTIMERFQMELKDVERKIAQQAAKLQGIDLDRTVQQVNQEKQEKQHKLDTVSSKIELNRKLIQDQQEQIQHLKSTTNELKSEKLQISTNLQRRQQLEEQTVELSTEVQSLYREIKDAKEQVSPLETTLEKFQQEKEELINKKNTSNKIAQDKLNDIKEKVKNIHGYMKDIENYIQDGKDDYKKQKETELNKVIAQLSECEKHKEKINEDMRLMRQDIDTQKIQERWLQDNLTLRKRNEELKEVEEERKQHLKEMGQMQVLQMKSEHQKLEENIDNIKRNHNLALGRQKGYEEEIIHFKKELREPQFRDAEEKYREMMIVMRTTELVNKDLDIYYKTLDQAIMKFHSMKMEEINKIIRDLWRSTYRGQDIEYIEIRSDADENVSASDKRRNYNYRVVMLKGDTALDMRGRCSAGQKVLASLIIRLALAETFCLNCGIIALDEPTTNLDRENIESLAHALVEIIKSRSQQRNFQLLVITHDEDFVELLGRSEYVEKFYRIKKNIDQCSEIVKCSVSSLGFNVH

These are yes or no findings as the source states them, for the method shown. In cells and extracts the contact can be indirect. Some entries that bind do so weakly or less than the wild type.

The assay concerns the target RAD50 (human (endogenous in 293T)) (UniProt Q92878). Briefly: co-IP; RAD50 co-immunoprecipitation from HEK293T lysate (50 mM Tris-HCl pH 7.5, 150 mM NaCl, 0.5% NP-40, 5 mM MgCl2, 5% glycerol) with Benzonase, 4°C; antibody on Protein G Dynabeads; cells mock treated with DMSO (for NBS1 and MRE11 also cells treated with 100 μM mirin, 2.5 h); western blot. A general note: In western blotting, separated proteins are transferred to a membrane and probed.

B1: DROSHA (protein, UniProt Q9NRR4 1-1374)
chain: MMQGNTCHRMSFHPGRGCPRGRGGHGARPSAPSFRPQNLRLLHPQQPPVQYQYEPPSAPSTTFSNSPAPNFLPPRPDFVPFPPPMPPSAQGPLPPCPIRPPFPNHQMRHPFPVPPCFPPMPPPMPCPNNPPVPGAPPGQGTFPFMMPPPSMPHPPPPPVMPQQVNYQYPPGYSHHNFPPPSFNSFQNNPSSFLPSANNSSSPHFRHLPPYPLPKAPSERRSPERLKHYDDHRHRDHSHGRGERHRSLDRRERGRSPDRRRQDSRYRSDYDRGRTPSRHRSYERSRERERERHRHRDNRRSPSLERSYKKEYKRSGRSYGLSVVPEPAGCTPELPGEIIKNTDSWAPPLEIVNHRSPSREKKRARWEEEKDRWSDNQSSGKDKNYTSIKEKEPEETMPDKNEEEEEELLKPVWIRCTHSENYYSSDPMDQVGDSTVVGTSRLRDLYDKFEEELGSRQEKAKAARPPWEPPKTKLDEDLESSSESECESDEDSTCSSSSDSEVFDVIAEIKRKKAHPDRLHDELWYNDPGQMNDGPLCKCSAKARRTGIRHSIYPGEEAIKPCRPMTNNAGRLFHYRITVSPPTNFLTDRPTVIEYDDHEYIFEGFSMFAHAPLTNIPLCKVIRFNIDYTIHFIEEMMPENFCVKGLELFSLFLFRDILELYDWNLKGPLFEDSPPCCPRFHFMPRFVRFLPDGGKEVLSMHQILLYLLRCSKALVPEEEIANMLQWEELEWQKYAEECKGMIVTNPGTKPSSVRIDQLDREQFNPDVITFPIIVHFGIRPAQLSYAGDPQYQKLWKSYVKLRHLLANSPKVKQTDKQKLAQREEALQKIRQKNTMRREVTVELSSQGFWKTGIRSDVCQHAMMLPVLTHHIRYHQCLMHLDKLIGYTFQDRCLLQLAMTHPSHHLNFGMNPDHARNSLSNCGIRQPKYGDRKVHHMHMRKKGINTLINIMSRLGQDDPTPSRINHNERLEFLGDAVVEFLTSVHLYYLFPSLEEGGLATYRTAIVQNQHLAMLAKKLELDRFMLYAHGPDLCRESDLRHAMANCFEALIGAVYLEGSLEEAKQLFGRLLFNDPDLREVWLNYPLHPLQLQEPNTDRQLIETSPVLQKLTEFEEAIGVIFTHVRLLARAFTLRTVGFNHLTLGHNQRMEFLGDSIMQLVATEYLFIHFPDHHEGHLTLLRSSLVNNRTQAKVAEELGMQEYAITNDKTKRPVALRTKTLADLLESFIAALYIDKDLEYVHTFMNVCFFPRLKEFILNQDWNDPKSQLQQCCLTLRTEGKEPDIPLYKTLQTVGPSHARTYTVAVYFKGERIGCGKGPSIQQAEMGAAMDALEKYNFPQMAHQKRFIERKYRQELKEMRWEREHQEREPDETEDIKK
As to B1, the binding result is listed as “binds”.
